The supplement of paper PMC4604168 (melanoma cell lines)
The list shows a part of the results. Single values are uncertain, as repeats are few or missing.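 Imaging used 1,536-well plates; nuclei positive for cleaved PARP by antibody were divided by total DNA-stained nuclei to yield the apoptosis fraction. Doses for screening kept most cells viable, and cell lines differ markedly in resting and induced cleaved-PARP levels.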

What was measured:
Test in all cases: cleaved PARP positive nuclei fraction relative to DMSO control; melanoma cells; higher = more apoptosis
Conditions in all cases: library dose: low library concentration; 72 h
501Mel = test system: 501Mel
A101D = test system: A101D
A2058 = test system: A2058
A375 = test system: A375
C32 = test system: C32
CBRC013 = test system: CBRC013 (line from a melanoma biopsy)
CBRC014 = test system: CBRC014 (line from a melanoma biopsy)
CBRC016 = test system: CBRC016 (line from a melanoma biopsy)
CBRC017 = test system: CBRC017 (line from a melanoma biopsy)
CBRC034 = test system: CBRC034 (line from a melanoma biopsy)
COLO792 = test system: COLO792
COLO800 = test system: COLO800
COLO829 = test system: COLO829
G361 = test system: G361
IPC-298 = test system: IPC-298
IST-MEL1 = test system: IST-MEL1
LB2518-MEL = test system: LB2518-MEL
LOXIMVI = test system: LOXIMVI

SMILES	cleaved PARP positive nuclei fraction (501Mel)	cleaved PARP positive nuclei fraction (A101D)	cleaved PARP positive nuclei fraction (A2058)	cleaved PARP positive nuclei fraction (A375)	cleaved PARP positive nuclei fraction (C32)	cleaved PARP positive nuclei fraction (CBRC013)	cleaved PARP positive nuclei fraction (CBRC014)	cleaved PARP positive nuclei fraction (CBRC016)	cleaved PARP positive nuclei fraction (CBRC017)	cleaved PARP positive nuclei fraction (CBRC034)	cleaved PARP positive nuclei fraction (COLO792)	cleaved PARP positive nuclei fraction (COLO800)	cleaved PARP positive nuclei fraction (COLO829)	cleaved PARP positive nuclei fraction (G361)	cleaved PARP positive nuclei fraction (IPC-298)	cleaved PARP positive nuclei fraction (IST-MEL1)	cleaved PARP positive nuclei fraction (LB2518-MEL)	cleaved PARP positive nuclei fraction (LOXIMVI)
Cn1nnc2c(C(N)=O)ncn2c1=O [temozolomide] + CCCCCCCCCCCC1=C(O)C(=O)C=C(O)C1=O [Embelin] (first compound 2 µM, partner dose 1.2 µM)	77.7%	58.2%	93.9%	184%	164%	192%	114%	20.4%	66.6%	82.7%	257%	109%	89.9%	72.8%	41.6%	40.9%	83.5%	74.3%
Cn1nnc2c(C(N)=O)ncn2c1=O [temozolomide] + O=c1cc(-c2cccc3c2Sc2ccccc2S3)oc(N2CCOCC2)c1 [KU55933] (first compound 2 µM, partner dose 1 µM)	57%	63.6%	71.7%	61.9%	92.5%	46.9%	105%	43.4%	93%	89.4%	271%	144%	46.3%	111%	170%	68.3%	129%	14.7%
NC(=O)Nc1cc(-c2cccc(F)c2)sc1C(=O)N[C@H]1CCCNC1 + O=C(Nc1ccccc1)c1cc([N+](=O)[O-])ccc1Cl [GW9662] (first compound 0.02 µM, partner dose 2 µM)	50.3%	58.6%	72.8%	76.7%	103%	351%	98.6%	65.9%	102%	108%	60.6%	136%	70.5%	207%	97.8%	231%	228%	45.1%
CC(C)(C)c1cnc(CSc2cnc(NC(=O)C3CCNCC3)s2)o1 + O=C(Nc1ccccc1)c1cc([N+](=O)[O-])ccc1Cl [GW9662] (first compound 0.01 µM, partner dose 2 µM)	53.6%	67.7%	315%	89.1%	86.8%	107%	105%	59.5%	78.9%	196%	110%	109%	165%	92.5%	74.4%	163%	77.4%	74.3%
Cn1c(Nc2ccc(C(F)(F)F)cc2)nc2cc(Oc3ccnc(-c4ncc(C(F)(F)F)[nH]4)c3)ccc21 + c1cc(-c2cnn3cc(-c4ccc(OCCN5CCCCC5)cc4)cnc23)ccn1 [Dorsomorphin] (first compound 0.08 µM, partner dose 0.4 µM)	106%	79.4%	69.1%	165%	50.6%	861%	102%	124%	155%	112%	195%	260%	118%	313%	132%	46.2%	130%	84%
Cc1nc(Nc2ncc(C(=O)Nc3c(C)cccc3Cl)s2)cc(N2CCN(CCO)CC2)n1 [dasatanib] + COc1ccc(-c2ccc3c(N4CCOCC4)nc(N4C[C@@H](C)O[C@@H](C)C4)nc3n2)cc1CO [KU0063794] (first compound 0.004 µM, partner dose 0.02 µM)	81.5%	95.4%	149%	147%	105%	81.2%	124%	72.4%	72.8%	136%	124%	198%	92%	70.5%	96.4%	104%	92.7%	57.4%
COc1cc(Nc2ncc(F)c(Nc3ccc4c(n3)NC(=O)C(C)(C)O4)n2)cc(OC)c1OC [Tamatinib] + COc1ccc2c(c1)CCC1C2CCC2(C)C(NCCCCCCN3C(=O)C=CC3=O)CCC12 [U73122] (first compound 0.4 µM, partner dose 0.4 µM)	105%	195%	126%	191%	78.9%	64.9%	97.2%	38.9%	119%	101%	158%	145%	108%	148%	158%	113%	100%	37.9%
C[C@]1(c2nc3c(C(N)=O)cccc3[nH]2)CCCN1 [Veliparib] + N#Cc1c(O)c2c(-c3ccc(-c4ccccc4O)cc3)csc2[nH]c1=O [A769662] (first compound 1.4 µM, partner dose 2 µM)	87.6%	33%	132%	138%	64.3%	67.3%	95.2%	131%	168%	33.3%	159%	186%	35.3%	99.7%	41.6%	45%	84.7%	39.4%
C[C@@H]1CCN(C(=O)CC#N)C[C@@H]1N(C)c1ncnc2[nH]ccc12 + Cn1cc(/C=C2\C(=O)Nc3cccnc32)c2ccccc21 [GW441756] (first compound 1 µM, partner dose 0.4 µM)	91.4%	281%	29.2%	48.6%	47.2%	194%	104%	104%	77.3%	89.8%	37%	152%	54.5%	81.7%	109%	137%	87.4%	86.5%
C#Cc1cccc(Nc2ncnc3cc(OCCOC)c(OCCOC)cc23)c1 [erlotinib] + CCN(CC)CCCCNc1ncc2cc(-c3cc(OC)cc(OC)c3)c(NC(=O)NC(C)(C)C)nc2n1 [PD173074] (first compound 0.8 µM, partner dose 0.1 µM)	219%	106%	37.4%	39.8%	198%	123%	80.4%	57.2%	82%	41.9%	156%	101%	97%	46.4%	68.4%	113%	170%	25.9%
